{"source": "PubChem BioAssay AID1259424 – University of Nebraska Medical Center, 2018", "assay": "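Find knockdowns that reproduce the expression shifts seen after KSR1 loss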 (primary screen)", "cells": "human HCT116 colon cancer cells", "reagent": "siRNA pool against human genes, 50 nM", "detection": "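Six signature mRNAs by branched-DNA multiplex assay, scaled to two housekeeping genes and non-targeting median, log2; matched to mean KSR1 knockdown profile by Pearson correlation and euclidean distance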", "direction": "mean correlation with KSR1 profile: higher = expression change more like KSR1 knockdown; mean distance from KSR1 profile: higher = expression change less like KSR1 knockdown", "note": "The deposit covers about 14,000 reagents; this is an unselected part. 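Higher correlation or smaller distance means closer resemblance to KSR1 loss; control wells, including KSR1 knockdowns, recur on many plates.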 Further read-outs or replicates are left out here. The record does not give: the time to read-out."}
{"gene symbol": "ACTL7B", "mean correlation with KSR1 profile": 0.0202, "mean distance from KSR1 profile": 3.62}
{"gene symbol": "ELOVL5", "mean correlation with KSR1 profile": 0.406, "mean distance from KSR1 profile": 2.1}
{"gene symbol": "DRC8", "mean correlation with KSR1 profile": 0.399, "mean distance from KSR1 profile": 1.81}
{"gene symbol": "TENT4B", "mean correlation with KSR1 profile": 0.734, "mean distance from KSR1 profile": 1.51}
{"gene symbol": "GNL2", "mean correlation with KSR1 profile": 0.273, "mean distance from KSR1 profile": 4.96}
{"gene symbol": "ADAMTS1", "mean correlation with KSR1 profile": -0.651, "mean distance from KSR1 profile": 2.48}
{"gene symbol": "GPRASP3", "mean correlation with KSR1 profile": 0.308, "mean distance from KSR1 profile": 1.62}
{"gene symbol": "GLE1", "mean correlation with KSR1 profile": -0.63, "mean distance from KSR1 profile": 1.91}
{"gene symbol": "RSU1", "mean correlation with KSR1 profile": -0.0242, "mean distance from KSR1 profile": 1.85}
{"gene symbol": "DDX55", "mean correlation with KSR1 profile": -0.417, "mean distance from KSR1 profile": 2.54}
{"gene symbol": "H1-6", "mean correlation with KSR1 profile": -0.228, "mean distance from KSR1 profile": 1.99}
{"gene symbol": "TAS2R46", "mean correlation with KSR1 profile": 0.73, "mean distance from KSR1 profile": 1.24}
{"gene symbol": "SEC24B", "mean correlation with KSR1 profile": -0.105, "mean distance from KSR1 profile": 1.41}
{"gene symbol": "ENTREP1", "mean correlation with KSR1 profile": -0.0867, "mean distance from KSR1 profile": 3.01}
{"gene symbol": "NELL1", "mean correlation with KSR1 profile": 0.385, "mean distance from KSR1 profile": 1.24}
{"gene symbol": "FOXA1", "mean correlation with KSR1 profile": 0.516, "mean distance from KSR1 profile": 2.19}
{"gene symbol": "LCK", "mean correlation with KSR1 profile": 0.238, "mean distance from KSR1 profile": 1.79}
{"gene symbol": "MMP10", "mean correlation with KSR1 profile": 0.299, "mean distance from KSR1 profile": 2.06}

Looked up above:
Entry of DDX55 under “mean distance from KSR1 profile”: 2.54
ACTL7B, mean distance from KSR1 profile: 3.62

More results follow:
{"gene symbol": "DTL", "mean correlation with KSR1 profile": -0.537, "mean distance from KSR1 profile": 1.71}
{"gene symbol": "MCRS1", "mean correlation with KSR1 profile": -0.524, "mean distance from KSR1 profile": 3.61}
{"gene symbol": "EMP1", "mean correlation with KSR1 profile": 0.105, "mean distance from KSR1 profile": 2.15}
{"gene symbol": "MRPL27", "mean correlation with KSR1 profile": 0.0635, "mean distance from KSR1 profile": 3.59}
{"gene symbol": "SPATA31H1", "mean correlation with KSR1 profile": 0.786, "mean distance from KSR1 profile": 2.68}
{"gene symbol": "FCRL1", "mean correlation with KSR1 profile": 0.0414, "mean distance from KSR1 profile": 1.52}
{"gene symbol": "RANGAP1", "mean correlation with KSR1 profile": 0.252, "mean distance from KSR1 profile": 1.14}
{"gene symbol": "TNFRSF18", "mean correlation with KSR1 profile": 0.0822, "mean distance from KSR1 profile": 2.53}
{"gene symbol": "NAA15", "mean correlation with KSR1 profile": 0.266, "mean distance from KSR1 profile": 1.58}
{"gene symbol": "RTCA", "mean correlation with KSR1 profile": -0.29, "mean distance from KSR1 profile": 1.48}
{"gene symbol": "PI4K2A", "mean correlation with KSR1 profile": 0.698, "mean distance from KSR1 profile": 1.06}
{"gene symbol": "HNRNPA1", "mean correlation with KSR1 profile": -0.473, "mean distance from KSR1 profile": 4.52}
{"gene symbol": "TAOK1", "mean correlation with KSR1 profile": -0.175, "mean distance from KSR1 profile": 1.51}
{"gene symbol": "PTPRM", "mean correlation with KSR1 profile": -0.14, "mean distance from KSR1 profile": 2.55}
{"gene symbol": "MBD5", "mean correlation with KSR1 profile": 0.335, "mean distance from KSR1 profile": 0.829}
{"gene symbol": "SETX", "mean correlation with KSR1 profile": -0.707, "mean distance from KSR1 profile": 3.05}
{"gene symbol": "FOXJ2", "mean correlation with KSR1 profile": 0.0308, "mean distance from KSR1 profile": 2.6}
{"gene symbol": "CD33", "mean correlation with KSR1 profile": 0.119, "mean distance from KSR1 profile": 1.59}
